## Library screen at single concentrations

Protein sequences, listed by entry. Tags and fused reporters are not part of them. Residues count along the entry.
UniProt P9WFT3, whole entry: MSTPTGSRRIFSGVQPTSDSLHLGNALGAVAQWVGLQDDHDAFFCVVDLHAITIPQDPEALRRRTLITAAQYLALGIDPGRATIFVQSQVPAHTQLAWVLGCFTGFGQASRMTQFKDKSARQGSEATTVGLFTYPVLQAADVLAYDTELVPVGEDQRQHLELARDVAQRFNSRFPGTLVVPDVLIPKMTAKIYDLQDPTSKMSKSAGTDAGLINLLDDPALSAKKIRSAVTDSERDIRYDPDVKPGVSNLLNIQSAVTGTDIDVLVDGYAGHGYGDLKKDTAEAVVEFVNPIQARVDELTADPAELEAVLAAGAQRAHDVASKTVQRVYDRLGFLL
UniProt Q4DA54, 1-478: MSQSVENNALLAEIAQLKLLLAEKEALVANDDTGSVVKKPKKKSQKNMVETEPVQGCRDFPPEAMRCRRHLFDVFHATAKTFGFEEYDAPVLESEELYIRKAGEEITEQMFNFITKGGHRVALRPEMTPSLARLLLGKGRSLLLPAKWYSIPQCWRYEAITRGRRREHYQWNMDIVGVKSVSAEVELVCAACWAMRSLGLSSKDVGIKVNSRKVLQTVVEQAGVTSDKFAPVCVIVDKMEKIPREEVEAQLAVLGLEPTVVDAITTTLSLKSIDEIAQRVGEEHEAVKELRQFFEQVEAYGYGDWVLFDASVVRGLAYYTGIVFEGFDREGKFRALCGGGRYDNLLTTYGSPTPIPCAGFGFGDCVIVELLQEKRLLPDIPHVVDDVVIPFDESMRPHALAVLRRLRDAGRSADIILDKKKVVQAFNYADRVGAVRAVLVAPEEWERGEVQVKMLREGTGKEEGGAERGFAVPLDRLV
UniProt Q8IDJ8, 1-583: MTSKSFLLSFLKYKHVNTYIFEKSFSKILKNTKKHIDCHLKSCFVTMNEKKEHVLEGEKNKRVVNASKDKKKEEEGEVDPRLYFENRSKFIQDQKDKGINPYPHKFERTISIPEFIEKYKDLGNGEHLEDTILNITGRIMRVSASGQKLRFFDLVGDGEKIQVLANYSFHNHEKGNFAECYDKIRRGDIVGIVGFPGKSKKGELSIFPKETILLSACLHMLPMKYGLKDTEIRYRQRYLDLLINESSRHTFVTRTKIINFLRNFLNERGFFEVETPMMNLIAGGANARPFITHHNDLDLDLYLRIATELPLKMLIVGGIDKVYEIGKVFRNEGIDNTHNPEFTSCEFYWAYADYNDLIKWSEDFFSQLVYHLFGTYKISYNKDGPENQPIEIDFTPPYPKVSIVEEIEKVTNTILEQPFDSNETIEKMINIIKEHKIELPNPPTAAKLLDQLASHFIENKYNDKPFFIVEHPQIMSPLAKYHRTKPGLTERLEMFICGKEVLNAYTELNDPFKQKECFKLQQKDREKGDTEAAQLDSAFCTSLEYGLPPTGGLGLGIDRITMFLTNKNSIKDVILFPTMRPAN
UniProt P9WNZ1, whole entry: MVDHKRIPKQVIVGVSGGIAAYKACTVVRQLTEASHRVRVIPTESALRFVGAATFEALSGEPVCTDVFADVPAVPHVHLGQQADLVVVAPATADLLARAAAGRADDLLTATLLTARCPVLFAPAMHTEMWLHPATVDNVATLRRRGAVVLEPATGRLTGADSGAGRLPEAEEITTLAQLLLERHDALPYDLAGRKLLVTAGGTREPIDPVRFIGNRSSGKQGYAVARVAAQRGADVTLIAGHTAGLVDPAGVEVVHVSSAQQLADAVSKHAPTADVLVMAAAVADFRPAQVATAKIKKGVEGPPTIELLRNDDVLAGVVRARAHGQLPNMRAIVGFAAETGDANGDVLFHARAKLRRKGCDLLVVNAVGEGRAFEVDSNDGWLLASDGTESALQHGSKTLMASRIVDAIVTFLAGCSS
UniProt I6X8D2, whole entry: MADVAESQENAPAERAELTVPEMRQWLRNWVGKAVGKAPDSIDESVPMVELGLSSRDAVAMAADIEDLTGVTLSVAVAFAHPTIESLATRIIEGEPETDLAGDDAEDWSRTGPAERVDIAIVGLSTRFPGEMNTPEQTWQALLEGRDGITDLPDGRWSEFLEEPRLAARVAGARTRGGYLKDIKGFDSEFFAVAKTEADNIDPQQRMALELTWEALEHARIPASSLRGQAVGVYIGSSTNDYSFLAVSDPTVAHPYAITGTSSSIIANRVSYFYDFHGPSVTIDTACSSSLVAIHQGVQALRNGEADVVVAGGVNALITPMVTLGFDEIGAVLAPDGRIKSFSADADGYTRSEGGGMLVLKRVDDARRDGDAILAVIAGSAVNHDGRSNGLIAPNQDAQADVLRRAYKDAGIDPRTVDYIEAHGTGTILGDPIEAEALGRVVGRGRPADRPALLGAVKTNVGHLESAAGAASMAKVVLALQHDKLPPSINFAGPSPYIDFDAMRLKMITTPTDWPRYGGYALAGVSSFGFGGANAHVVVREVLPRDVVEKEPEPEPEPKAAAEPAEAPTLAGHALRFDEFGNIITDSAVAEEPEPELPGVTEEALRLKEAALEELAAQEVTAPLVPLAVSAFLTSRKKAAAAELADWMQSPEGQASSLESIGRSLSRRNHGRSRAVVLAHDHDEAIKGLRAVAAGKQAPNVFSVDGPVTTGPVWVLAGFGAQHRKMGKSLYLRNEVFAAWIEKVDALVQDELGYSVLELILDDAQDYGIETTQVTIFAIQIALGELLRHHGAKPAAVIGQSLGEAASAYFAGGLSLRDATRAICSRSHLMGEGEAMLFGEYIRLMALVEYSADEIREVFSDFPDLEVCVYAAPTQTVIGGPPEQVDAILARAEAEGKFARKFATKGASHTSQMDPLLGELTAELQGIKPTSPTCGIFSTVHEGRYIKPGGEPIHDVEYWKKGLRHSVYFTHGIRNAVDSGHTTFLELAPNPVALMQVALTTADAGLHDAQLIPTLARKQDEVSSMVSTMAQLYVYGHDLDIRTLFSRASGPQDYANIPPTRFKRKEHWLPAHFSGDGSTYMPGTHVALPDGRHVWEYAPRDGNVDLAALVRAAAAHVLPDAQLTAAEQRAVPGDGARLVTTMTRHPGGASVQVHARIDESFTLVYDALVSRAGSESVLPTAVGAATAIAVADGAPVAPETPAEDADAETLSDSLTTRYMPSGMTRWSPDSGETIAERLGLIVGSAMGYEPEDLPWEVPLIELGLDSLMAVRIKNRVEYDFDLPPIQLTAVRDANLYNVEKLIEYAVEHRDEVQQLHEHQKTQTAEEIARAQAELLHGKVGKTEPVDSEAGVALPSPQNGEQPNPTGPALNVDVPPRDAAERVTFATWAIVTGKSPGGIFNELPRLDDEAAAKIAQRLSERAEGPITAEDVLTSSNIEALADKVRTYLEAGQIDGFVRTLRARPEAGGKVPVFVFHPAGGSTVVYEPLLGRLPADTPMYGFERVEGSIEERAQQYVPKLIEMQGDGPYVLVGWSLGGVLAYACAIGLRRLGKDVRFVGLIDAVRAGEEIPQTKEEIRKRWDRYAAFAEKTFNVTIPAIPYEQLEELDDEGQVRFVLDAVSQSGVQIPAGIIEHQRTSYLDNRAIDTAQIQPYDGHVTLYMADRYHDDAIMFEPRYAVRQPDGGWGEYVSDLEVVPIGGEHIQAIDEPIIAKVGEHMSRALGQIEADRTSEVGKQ

Data taken from ChEMBL document CHEMBL3988442, “University of Dundee, Small-Polar-MMV Screening Library” (2021).

MtTrpRS: 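Tryptophan-tRNA ligase, Mycobacterium tuberculosis (UniProt P9WFT3). Enzyme assay of tryptophanyl-tRNA synthetase; the read-out is not stated. Tested at 10 µM. Higher most likely means stronger inhibition; the record gives no direction and few retests gave an IC50. Of about 65,000 compounds tested this way, about 64 (0.098%) reached 50% or more in at least one test.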
TcHisRS: 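Histidine-tRNA ligase, Trypanosoma cruzi CL Brener (UniProt Q4DA54). Enzyme assay of histidyl-tRNA synthetase; the read-out is not stated. Compounds at 30 µM. The record gives no direction; compounds that gave an IC50 in retests scored well above the rest, so higher reads as stronger inhibition. Size under these conditions: about 69,000 compounds, about 31 of them at 50% or above in at least one test.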
PfKRS1: 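Enzyme assay of the cytosolic lysyl-tRNA synthetase in 384-well plates, read by luminescence. Target: Lysine-tRNA ligase, Plasmodium falciparum 3D7 (UniProt Q8IDJ8). Tested at 30 µM. Direction is inferred from only a few compounds that gave an IC50; most scored high, so higher reads as stronger inhibition. Size under these conditions: about 69,000 compounds, about 49 of them at 50% or above in at least one test.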
CoaBC: 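Coenzyme A biosynthesis protein CoaBC, Mycobacterium tuberculosis (UniProt P9WNZ1). Enzyme assay of CoaBC with a phosphate dye (Biomol Green) read at 650 nm. Compounds at 30 µM. Higher reads as stronger inhibition, judged from the few compounds that gave an IC50. Most strong results did not repeat in a second test. About 67,000 compounds were tested under these conditions; 0.06% (about 40) showed 50% or more at least once.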
Pks13 thioesterase: 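Polyketide synthase Pks13, Mycobacterium tuberculosis (UniProt I6X8D2). Enzyme assay of the thioesterase domain of polyketide synthase 13; the read-out is not stated. Concentration: 30 µM. Higher reads as stronger inhibition (inferred from which compounds were picked for retests). Of about 67,000 compounds tested this way, about 300 (0.46%) reached 50% or more in at least one test.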
Leishmania in macrophages: 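Cell assay of Leishmania donovani living inside macrophages; the read-out is not stated. Concentration: 30 µM. Higher reads as stronger inhibition (inferred: compounds with an IC50 in retests scored well above the rest). Of about 69,000 compounds tested this way, about 1,000 (1.5%) reached 50% or more in at least one test.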

Values are the deposited “Percent Effect”, in %.
The controls that fix the scale are not given in the record; negative values are as filed.
The compounds are a random part of those screened.
Two or more numbers in one place are separate tests of the same structure; such repeats can differ widely.

* COCCCNC(=O)CN(C)Cc1ccc(F)cc1Cl | MtTrpRS: 9.326%; TcHisRS: -1.058%; PfKRS1: -5.609%; CoaBC: 9.27%; Pks13 thioesterase: 1.909%; Leishmania in macrophages: -22.43%
* COCc1nc(Cn2ncn3cccc3c2=O)no1 | MtTrpRS: -3.003%; TcHisRS: 2.128%; PfKRS1: -0.7221%; CoaBC: 7.631%; Pks13 thioesterase: -2.283%; Leishmania in macrophages: 3.96%
* Cc1cc(C)nc(Nc2cccc(C3CCCN(C)C3)n2)n1.O=CO (configuration not stated) | Leishmania in macrophages: 33.39%
* CCCn1cc(CN2CCOCC2c2[nH]ncc2C)cn1 (configuration not stated) | MtTrpRS: -1.24%; TcHisRS: 3.955%; PfKRS1: 1.25%; CoaBC: 66.59% and 10.82%; Pks13 thioesterase: -2.815%; Leishmania in macrophages: 1.026%
* CC(C)(C)OC(=O)N1CCCN(Cc2ccon2)c2ccccc21 | MtTrpRS: 6.699%; TcHisRS: 5.882%; PfKRS1: -8.303%; CoaBC: -2.871%; Pks13 thioesterase: 11.07%; Leishmania in macrophages: -22.99%
* Fc1cccc(Oc2nccnc2C2CCN(C3CCOCC3)CC2)c1 | MtTrpRS: 1.013%; TcHisRS: 5.426%; PfKRS1: -0.7868%; CoaBC: -0.6135%; Pks13 thioesterase: 0.4477%; Leishmania in macrophages: 12.2%
* Cc1c(C(=O)O)cnn1-c1ccc(-c2nc(C3CC3)no2)cn1 | MtTrpRS: 2.156%; TcHisRS: 5.155%; PfKRS1: 1.015%; CoaBC: 2.358%; Pks13 thioesterase: -14.83%; Leishmania in macrophages: 11.33%
* O=C(O)C(F)(F)F.[H][C@]12CCC[C@@]1(COCc1ccccn1)CN(C(=O)N1CCCC1)C2 | Leishmania in macrophages: 12.71%
* Cc1nsc(N2CCN(C(=O)Nc3cccc(F)c3)CC2)n1 | MtTrpRS: -0.3119%; TcHisRS: 0.5587%; PfKRS1: -5.574%; CoaBC: -4.435%; Pks13 thioesterase: 8.487%; Leishmania in macrophages: -2.029%
* O=C(NCC1CN(c2ncccn2)Cc2nccn2C1)c1cccnc1.O=C(O)C(F)(F)F (configuration not stated) | Leishmania in macrophages: 15.2%
* CN(C)CCNC(=O)C1Cc2nc(-c3ccccc3)sc2N1CC1CC1 (configuration not stated) | MtTrpRS: -2.039%; TcHisRS: 12.38%; PfKRS1: 3.68%; CoaBC: 5.302%; Pks13 thioesterase: 6.843%
* Cn1cc(-c2csc(CN3CCOCC3)n2)cn1 | MtTrpRS: -3.033%; TcHisRS: -2.439%; PfKRS1: -0.01173%; CoaBC: 5.063%; Pks13 thioesterase: -6.461%; Leishmania in macrophages: 12.43%
* Cc1nnc(CN(C)CC(=O)NC(C)(C)c2ccc(F)cc2)n1C | MtTrpRS: 0.3564%; TcHisRS: 3.478%; PfKRS1: 13.98%; CoaBC: -6.651%; Pks13 thioesterase: 0.9875%; Leishmania in macrophages: -8.435%
* Cc1cccc(C)c1-c1cc(NCCO)nc2[nH]ccc12 | MtTrpRS: -0.9025%; TcHisRS: 8.511%; PfKRS1: 4.656%; CoaBC: -4.303%; Pks13 thioesterase: 29.84%; Leishmania in macrophages: 35.45%
* CCn1ccnc1CN1CCCN(C(=O)c2ccsc2)CC1 | MtTrpRS: -5.72%; TcHisRS: 6.471%; PfKRS1: 1.201%; CoaBC: 5.882%; Pks13 thioesterase: -2.967%; Leishmania in macrophages: 19.38%
* O=C(C1CCCC1)N1CCOC(c2nc(-c3ncccn3)no2)C1 (configuration not stated) | TcHisRS: 12.77%; PfKRS1: 7.942%; CoaBC: 1.716%; Pks13 thioesterase: 11.87%; Leishmania in macrophages: 7.033%
* NC(=O)c1ccc(N2CCCCC2)c(NC(=O)c2cc(F)ccc2F)c1 | MtTrpRS: -1.145%; TcHisRS: 6.548%; PfKRS1: 6.406%; CoaBC: 5.725%; Pks13 thioesterase: -8.79%; Leishmania in macrophages: -1.673%
* O=C(NCC1(CO)CC1)c1ccccc1Br | MtTrpRS: -0.6255%; TcHisRS: 3.061%; PfKRS1: 7.722%; CoaBC: -4.37%; Pks13 thioesterase: -8.289%; Leishmania in macrophages: 45.06%
* CCN1CC(CN(C)c2cc(C)nc(N)n2)Oc2ccccc21 (configuration not stated) | MtTrpRS: -0.5747%; TcHisRS: -1.19%; PfKRS1: 0.5734%; CoaBC: -1.597%; Pks13 thioesterase: -1.165%; Leishmania in macrophages: 84.12%
* N#Cc1nc(COc2ccc3c(c2)OCO3)oc1NC1CCCCC1 | MtTrpRS: -2.171%; TcHisRS: -26.32%; PfKRS1: 2.303%; CoaBC: -2.273%; Pks13 thioesterase: 42.42%; Leishmania in macrophages: 16.49%
* CN(Cc1cn2c(n1)CN(C(N)=O)CC2)Cc1ccco1 | MtTrpRS: -0.239%; TcHisRS: 2.151%; PfKRS1: 3.619%; CoaBC: -10.74%; Pks13 thioesterase: -31.55%; Leishmania in macrophages: 3.71% and 37.03%
* O=C(O)C(F)(F)F.O=C(O)C(F)(F)F.O=C(c1cccnc1)N1Cc2nccn2CC(COc2cccnc2)C1 (configuration not stated) | Leishmania in macrophages: -2.157%
* c1cnc(-c2nc(CN3CCCC(N4CCCC4)C3)cs2)nc1 (configuration not stated) | MtTrpRS: -5.031%; TcHisRS: 6.122%; PfKRS1: 0.01962%; CoaBC: 8.344%; Pks13 thioesterase: -10.34%; Leishmania in macrophages: 36.48%

For reference, 2 entries once more:

| compound | MtTrpRS | TcHisRS | PfKRS1 | CoaBC | Pks13 thioesterase | Leishmania in macrophages |
|---|---|---|---|---|---|---|
| `Fc1cccc(Oc2nccnc2C2CCN(C3CCOCC3)CC2)c1` | 1.013 | 5.426 | -0.7868 | -0.6135 | 0.4477 | 12.2 |
| `Cc1nnc(CN(C)CC(=O)NC(C)(C)c2ccc(F)cc2)n1C` | 0.3564 | 3.478 | 13.98 | -6.651 | 0.9875 | -8.435 |